# Some of the results follow.
# B1: HA-61200 (Pseudomonas aeruginosa), Q02SP8_PSEAB (protein)
# chain: MNKCYALVWNVSQGCWNVVSEGSRRRGKPAGAKAAIASVLALLGATALAPAYALPSGGTVVGGSANGEIHLSGGNSLSVNQKVDKLIANWDSFSVAAGERVIFNQPSSSSIALNRVIGTKASDIQGRIDANGQVFLVNPNGVLFGRGAQVNVGGLVASTLDITDAEFNGNSSRYRFTGPSTNGVLNHGGAITAAEGGSIALLGAQVDNRGTVLAQMGGVGLGAGSDLTLNFDGNKLLDIRVDAGVANALASNGGLLKADGGRVLMAARTANALLNTVVNSQGAIEARSLRGKNGRIVLDG
# Tests used:
# Test in all cases: glycan array binding signal (z-score within array); higher = stronger binding
# Conditions in all cases: glycan notation: IUPAC condensed, linker removed
# Gal(a1-6)Glc = target: Gal(a1-6)Glc
# In short: (§1)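 Glycan array data came from 3228 arrays in the Consortium for Functional Glycomics database, and only arrays with an available protein sequence were kept. Glycan names were put into IUPAC-condensed notation, and columns mapping to the same glycan were averaged. The binding signal is a within-array Z-score, averaged across arrays of one protein sequence run at different concentrations or buffers and across linkers. A negative Z-score can be read as non-binding.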
# Gal(b1-2)Gal = target: Gal(b1-2)Gal
# In short: as §1
# Gal(b1-3)Gal = target: Gal(b1-3)Gal
# In short: as §1
# Gal(b1-3)Gal(b1-4)GlcNAc = target: Gal(b1-3)Gal(b1-4)GlcNAc
# In short: as §1
# Gal(b1-3)GalNAc = target: Gal(b1-3)GalNAc
# In short: as §1
# [1] = target: Gal(b1-3)GalNAc(a1-3)[Fuc(a1-2)]Gal(b1-4)Glc
# In short: as §1
# [2] = target: Gal(b1-3)GalNAc(a1-3)[Fuc(a1-2)]Gal(b1-4)GlcNAc
# In short: as §1
# Gal(b1-3)GalNAc(b1-3)Gal = target: Gal(b1-3)GalNAc(b1-3)Gal
# In short: as §1
# [3] = target: Gal(b1-3)GalNAc(b1-3)Gal(a1-4)Gal(b1-4)Glc
# In short: as §1
# [4] = target: Gal(b1-3)GalNAc(b1-4)Gal(b1-4)Glc
# In short: as §1
# [5] = target: Gal(b1-3)GalNAc(b1-4)[Neu5Ac(a2-3)]Gal(b1-4)Glc
# In short: as §1
# Gal(b1-3)GlcNAc = target: Gal(b1-3)GlcNAc
# In short: as §1
# [6] = target: Gal(b1-3)GlcNAc(a1-3)Gal(b1-4)GlcNAc
# In short: as §1
# [7] = target: Gal(b1-3)GlcNAc(a1-6)Gal(b1-4)GlcNAc
# In short: as §1
# Gal(b1-3)GlcNAc(b1-2)Man = target: Gal(b1-3)GlcNAc(b1-2)Man
# In short: as §1
# [8] = target: Gal(b1-3)GlcNAc(b1-2)Man(a1-3)[Gal(b1-3)GlcNAc(b1-2)Man(a1-6)]Man(b1-4)GlcNAc(b1-4)GlcNAc
# In short: as §1
# [9] = target: Gal(b1-3)GlcNAc(b1-2)Man(a1-3)[Gal(b1-3)GlcNAc(b1-2)Man(a1-6)]Man(b1-4)GlcNAc(b1-4)[Fuc(a1-6)]GlcNAc
# In short: as §1
# [10] = target: Gal(b1-3)GlcNAc(b1-2)Man(a1-3)[GlcNAc(b1-4)][Gal(b1-3)GlcNAc(b1-2)Man(a1-6)]Man(b1-4)GlcNAc(b1-4)GlcNAc
# In short: as §1
# [11] = target: Gal(b1-3)GlcNAc(b1-2)[Gal(b1-3)GlcNAc(b1-6)]Man(a1-6)[Gal(b1-3)GlcNAc(b1-2)Man(a1-3)]Man(b1-4)GlcNAc(b1-4)GlcNAc
# In short: as §1
# [12] = target: Gal(b1-3)GlcNAc(b1-3)Gal(b1-3)GlcNAc
# In short: as §1
# [13] = target: Gal(b1-3)GlcNAc(b1-3)Gal(b1-4)Glc
# In short: as §1
# [14] = target: Gal(b1-3)GlcNAc(b1-3)Gal(b1-4)GlcNAc
# In short: as §1
# [15] = target: Gal(b1-3)GlcNAc(b1-3)Gal(b1-4)GlcNAc(b1-2)Man(a1-3)[Gal(b1-3)GlcNAc(b1-3)Gal(b1-4)GlcNAc(b1-2)Man(a1-6)]Man(b1-4)GlcNAc(b1-4)GlcNAc
# In short: as §1
# [16] = target: Gal(b1-3)GlcNAc(b1-3)Gal(b1-4)GlcNAc(b1-2)[Gal(b1-3)GlcNAc(b1-3)Gal(b1-4)GlcNAc(b1-6)]Man(a1-6)[Gal(b1-3)GlcNAc(b1-3)Gal(b1-4)GlcNAc(b1-2)Man(a1-3)]Man(b1-4)GlcNAc(b1-4)[Fuc(a1-6)]GlcNAc
# In short: as §1
# [17] = target: Gal(b1-3)GlcNAc(b1-3)Gal(b1-4)GlcNAc(b1-3)Gal(b1-4)GlcNAc(b1-2)[Gal(b1-3)GlcNAc(b1-3)Gal(b1-4)GlcNAc(b1-3)Gal(b1-4)GlcNAc(b1-6)]Man(a1-6)[Gal(b1-3)GlcNAc(b1-3)Gal(b1-4)GlcNAc(b1-3)Gal(b1-4)GlcNAc(b1-2)Man(a1-3)]Man(b1-4)GlcNAc(b1-4)[Fuc(a1-6)]GlcNAc
# In short: as §1
# [18] = target: Gal(b1-3)GlcNAc(b1-3)Gal(b1-4)GlcNAc(b1-6)[Gal(b1-3)GlcNAc(b1-3)]Gal(b1-4)Glc
# In short: as §1
# [19] = target: Gal(b1-3)GlcNAc(b1-3)Gal(b1-4)[Fuc(a1-3)]GlcNAc
# In short: as §1
# [20] = target: Gal(b1-3)GlcNAc(b1-3)Gal(b1-4)[Fuc(a1-3)]GlcNAc(b1-6)[Gal(b1-3)GlcNAc(b1-3)]Gal(b1-4)Glc
# In short: as §1
# [21] = target: Gal(b1-3)GlcNAc(b1-3)GalNAc
# In short: as §1
# [22] = target: Gal(b1-3)GlcNAc(b1-6)Gal(b1-4)GlcNAc
# In short: as §1
# [23] = target: Gal(b1-3)GlcNAc(b1-6)GalNAc
# In short: as §1
# [24] = target: Gal(b1-3)GlcNAc(b1-6)[Gal(b1-3)]GalNAc
# In short: as §1
# Gal(b1-3)GlcNAc6S = target: Gal(b1-3)GlcNAc6S
# In short: as §1
# [25] = target: Gal(b1-3)[Fuc(a1-4)]GlcNAc
# In short: as §1
# [26] = target: Gal(b1-3)[Fuc(a1-4)]GlcNAc(b1-2)Man
# In short: as §1
# [27] = target: Gal(b1-3)[Fuc(a1-4)]GlcNAc(b1-2)Man(a1-3)[Gal(b1-3)[Fuc(a1-4)]GlcNAc(b1-2)Man(a1-6)]Man(b1-4)GlcNAc(b1-4)[Fuc(a1-6)]GlcNAc
# In short: as §1
# [28] = target: Gal(b1-3)[Fuc(a1-4)]GlcNAc(b1-3)Gal(b1-3)[Fuc(a1-4)]GlcNAc
# In short: as §1
binder,measurement,setting,value
B1,glycan array binding signal (z-score),Gal(a1-6)Glc,0.384
same,glycan array binding signal (z-score),Gal(b1-2)Gal,-0.607
same,glycan array binding signal (z-score),Gal(b1-3)Gal,-0.137
same,glycan array binding signal (z-score),Gal(b1-3)Gal(b1-4)GlcNAc,0.122
same,glycan array binding signal (z-score),Gal(b1-3)GalNAc,-0.172
same,glycan array binding signal (z-score),[1],-0.155
same,glycan array binding signal (z-score),[2],-0.34
same,glycan array binding signal (z-score),Gal(b1-3)GalNAc(b1-3)Gal,-0.879
same,glycan array binding signal (z-score),[3],1.09
same,glycan array binding signal (z-score),[4],-0.357
same,glycan array binding signal (z-score),[5],2.35
same,glycan array binding signal (z-score),Gal(b1-3)GlcNAc,-0.668
same,glycan array binding signal (z-score),[6],-0.012
same,glycan array binding signal (z-score),[7],-0.002
same,glycan array binding signal (z-score),Gal(b1-3)GlcNAc(b1-2)Man,0.38
same,glycan array binding signal (z-score),[8],-0.154
same,glycan array binding signal (z-score),[9],5.22
same,glycan array binding signal (z-score),[10],0.796
same,glycan array binding signal (z-score),[11],1.86
same,glycan array binding signal (z-score),[12],-0.565
same,glycan array binding signal (z-score),[13],-0.019
same,glycan array binding signal (z-score),[14],-0.049
same,glycan array binding signal (z-score),[15],-0.142
same,glycan array binding signal (z-score),[16],1.69
same,glycan array binding signal (z-score),[17],2.44
same,glycan array binding signal (z-score),[18],-0.286
same,glycan array binding signal (z-score),[19],0.98
same,glycan array binding signal (z-score),[20],-1.04
same,glycan array binding signal (z-score),[21],-1.07
same,glycan array binding signal (z-score),[22],-0.809
same,glycan array binding signal (z-score),[23],0.257
same,glycan array binding signal (z-score),[24],-0.334
same,glycan array binding signal (z-score),Gal(b1-3)GlcNAc6S,0.306
same,glycan array binding signal (z-score),[25],-0.017
same,glycan array binding signal (z-score),[26],1.09
same,glycan array binding signal (z-score),[27],0.349
same,glycan array binding signal (z-score),[28],-0.534

# No new results follow: an excerpt of the list.
binder,measurement,setting,value
B1,glycan array binding signal (z-score),[13],-0.019
same,glycan array binding signal (z-score),[14],-0.049
same,glycan array binding signal (z-score),[15],-0.142
